The values that follow come from PMC10206070.

No constants are given. Whether binding was seen depends on the method and setting. In cells and extracts the contact can be indirect. Some results given as binding are weak or reduced against the parent protein; the word gives no strength.

The test has as its target T1, Adenosine Deaminase Acting on RNA 1 (ADAR1) (human (endogenous in MDA-MB-231)) (UniProt P55265).
T1 sequence: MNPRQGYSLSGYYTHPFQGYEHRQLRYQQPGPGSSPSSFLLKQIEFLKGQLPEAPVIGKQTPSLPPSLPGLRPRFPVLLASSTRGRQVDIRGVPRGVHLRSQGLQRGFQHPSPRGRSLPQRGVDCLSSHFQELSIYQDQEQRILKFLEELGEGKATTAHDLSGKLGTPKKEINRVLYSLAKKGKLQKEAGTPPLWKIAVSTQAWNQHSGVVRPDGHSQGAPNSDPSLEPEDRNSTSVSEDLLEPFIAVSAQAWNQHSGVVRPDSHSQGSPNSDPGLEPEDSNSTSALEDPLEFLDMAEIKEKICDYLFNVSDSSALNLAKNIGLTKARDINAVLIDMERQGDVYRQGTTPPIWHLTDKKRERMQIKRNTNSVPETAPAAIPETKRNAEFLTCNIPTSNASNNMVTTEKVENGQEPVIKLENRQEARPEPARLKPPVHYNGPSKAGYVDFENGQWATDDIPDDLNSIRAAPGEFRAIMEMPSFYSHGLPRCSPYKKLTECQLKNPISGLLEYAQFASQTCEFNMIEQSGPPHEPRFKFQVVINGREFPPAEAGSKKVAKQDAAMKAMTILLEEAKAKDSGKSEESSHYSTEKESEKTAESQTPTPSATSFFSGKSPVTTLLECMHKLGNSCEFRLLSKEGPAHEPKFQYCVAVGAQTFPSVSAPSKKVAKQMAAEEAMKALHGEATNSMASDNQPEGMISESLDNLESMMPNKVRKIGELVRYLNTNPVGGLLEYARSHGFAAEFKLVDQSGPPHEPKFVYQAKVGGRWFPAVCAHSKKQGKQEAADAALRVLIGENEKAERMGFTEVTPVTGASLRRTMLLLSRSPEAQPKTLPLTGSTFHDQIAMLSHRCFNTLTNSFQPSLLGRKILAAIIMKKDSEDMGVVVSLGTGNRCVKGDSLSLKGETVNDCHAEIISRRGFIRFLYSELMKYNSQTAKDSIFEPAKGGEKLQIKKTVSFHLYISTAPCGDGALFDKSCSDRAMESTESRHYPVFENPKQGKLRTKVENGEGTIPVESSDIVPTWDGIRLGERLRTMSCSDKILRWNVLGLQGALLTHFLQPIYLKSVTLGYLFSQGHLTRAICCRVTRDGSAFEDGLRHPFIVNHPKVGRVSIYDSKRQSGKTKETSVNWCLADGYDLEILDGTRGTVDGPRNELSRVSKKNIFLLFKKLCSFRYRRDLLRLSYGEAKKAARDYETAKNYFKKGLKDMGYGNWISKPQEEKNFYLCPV
Briefly: co-IP; MDA-MB-231 lysate (IP lysis buffer), 1 ug rabbit polyclonal anti-ADAR1 on protein A/G beads, overnight 4 C, four washes; normal rabbit IgG as control; blot with rabbit polyclonal anti-KYNU.

B1: Kynureninase (KYNU) (enzyme, UniProt Q16719 1-465)
chain: MEPSSLELPADTVQRIAAELKCHPTDERVALHLDEEDKLRHFRECFYIPKIQDLPPVDLSLVNKDENAIYFLGNSLGLQPKMVKTYLEEELDKWAKIAAYGHEVGKRPWITGDESIVGLMKDIVGANEKEIALMNALTVNLHLLMLSFFKPTPKRYKILLEAKAFPSDHYAIESQLQLHGLNIEESMRMIKPREGEETLRIEDILEVIEKEGDSIAVILFSGVHFYTGQHFNIPAITKAGQAKGCYVGFDLAHAVGNVELYLHDWGVDFACWCSYKYLNAGAGGIAGAFIHEKHAHTIKPALVGWFGHELSTRFKMDNKLQLIPGVCGFRISNPPILLVCSLHASLEIFKQATMKALRKKSVLLTGYLEYLIKHNYGKDKAATKKPVVNIITPSHVEERGCQLTITFSVPNKDVFQELEKRGVVCDKRNPNGIRVAPVPLYNSFHDVYKFTNLLTSILDSAETKN
With B1, the binding entry is reported as “binds”.
